Data taken from the supplement of paper PMC7666118.
This is one part of the list.

Chains of the proteins cited; added tags and fusions are not shown. Lines headed by an entry give the natural chain unless they say otherwise; changes in a name come on top.
UniProt P55327: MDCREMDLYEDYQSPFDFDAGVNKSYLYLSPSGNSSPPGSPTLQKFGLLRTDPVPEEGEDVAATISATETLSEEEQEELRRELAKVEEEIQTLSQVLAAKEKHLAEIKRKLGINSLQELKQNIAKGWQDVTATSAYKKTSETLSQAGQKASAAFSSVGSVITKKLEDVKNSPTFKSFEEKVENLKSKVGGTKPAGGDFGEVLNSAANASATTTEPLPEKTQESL
UniProt O14524: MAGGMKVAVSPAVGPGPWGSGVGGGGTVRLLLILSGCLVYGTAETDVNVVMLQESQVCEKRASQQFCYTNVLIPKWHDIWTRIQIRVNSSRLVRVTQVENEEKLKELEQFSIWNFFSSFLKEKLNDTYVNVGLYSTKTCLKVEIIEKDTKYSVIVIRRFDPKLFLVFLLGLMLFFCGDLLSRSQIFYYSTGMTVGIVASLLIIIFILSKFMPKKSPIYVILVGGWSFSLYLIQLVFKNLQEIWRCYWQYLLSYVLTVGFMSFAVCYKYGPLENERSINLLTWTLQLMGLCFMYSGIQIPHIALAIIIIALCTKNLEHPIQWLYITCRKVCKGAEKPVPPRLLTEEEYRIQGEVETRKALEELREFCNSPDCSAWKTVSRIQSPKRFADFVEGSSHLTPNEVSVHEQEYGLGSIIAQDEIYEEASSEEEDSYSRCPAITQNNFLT
UniProt Q7Z6J9: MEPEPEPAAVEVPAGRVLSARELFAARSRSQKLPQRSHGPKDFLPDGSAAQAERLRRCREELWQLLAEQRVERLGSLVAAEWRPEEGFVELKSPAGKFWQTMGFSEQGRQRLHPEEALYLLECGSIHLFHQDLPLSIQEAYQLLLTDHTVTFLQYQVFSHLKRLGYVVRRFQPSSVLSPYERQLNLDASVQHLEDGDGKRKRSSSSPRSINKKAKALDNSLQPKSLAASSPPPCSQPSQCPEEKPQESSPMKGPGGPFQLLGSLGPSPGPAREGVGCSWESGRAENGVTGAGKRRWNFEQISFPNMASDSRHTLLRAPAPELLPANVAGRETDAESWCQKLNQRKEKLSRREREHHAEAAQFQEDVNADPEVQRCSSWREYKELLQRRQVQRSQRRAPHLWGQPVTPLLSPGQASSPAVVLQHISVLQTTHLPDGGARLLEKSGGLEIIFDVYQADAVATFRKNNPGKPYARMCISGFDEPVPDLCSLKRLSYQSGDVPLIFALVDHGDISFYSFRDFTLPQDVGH
UniProt Q96F44: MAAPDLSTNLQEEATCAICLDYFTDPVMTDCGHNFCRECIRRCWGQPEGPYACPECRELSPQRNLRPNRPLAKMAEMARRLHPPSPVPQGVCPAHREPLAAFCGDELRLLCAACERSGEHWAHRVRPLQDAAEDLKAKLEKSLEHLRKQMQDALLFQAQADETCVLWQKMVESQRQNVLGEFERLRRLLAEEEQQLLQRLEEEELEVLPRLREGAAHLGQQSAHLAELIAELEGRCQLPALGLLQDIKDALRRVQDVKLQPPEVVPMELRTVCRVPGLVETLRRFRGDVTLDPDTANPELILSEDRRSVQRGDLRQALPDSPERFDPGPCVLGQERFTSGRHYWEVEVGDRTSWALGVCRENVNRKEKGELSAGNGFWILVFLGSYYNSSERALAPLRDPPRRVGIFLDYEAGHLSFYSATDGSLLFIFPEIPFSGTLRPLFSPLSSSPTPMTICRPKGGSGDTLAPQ
UniProt Q9NVA4: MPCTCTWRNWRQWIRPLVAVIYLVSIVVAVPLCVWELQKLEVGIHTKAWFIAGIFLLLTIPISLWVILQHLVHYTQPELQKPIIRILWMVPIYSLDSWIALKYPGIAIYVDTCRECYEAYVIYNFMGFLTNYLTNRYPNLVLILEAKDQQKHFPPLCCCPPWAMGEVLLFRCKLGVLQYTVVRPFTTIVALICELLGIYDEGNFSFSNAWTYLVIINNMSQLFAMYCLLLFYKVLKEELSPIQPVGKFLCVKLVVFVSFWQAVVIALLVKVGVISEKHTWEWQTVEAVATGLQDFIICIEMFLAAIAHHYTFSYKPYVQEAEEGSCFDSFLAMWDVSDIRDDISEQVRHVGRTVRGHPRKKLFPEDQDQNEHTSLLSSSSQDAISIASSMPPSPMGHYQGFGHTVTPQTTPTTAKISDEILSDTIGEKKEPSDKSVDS
UniProt Q86XT9, whole entry: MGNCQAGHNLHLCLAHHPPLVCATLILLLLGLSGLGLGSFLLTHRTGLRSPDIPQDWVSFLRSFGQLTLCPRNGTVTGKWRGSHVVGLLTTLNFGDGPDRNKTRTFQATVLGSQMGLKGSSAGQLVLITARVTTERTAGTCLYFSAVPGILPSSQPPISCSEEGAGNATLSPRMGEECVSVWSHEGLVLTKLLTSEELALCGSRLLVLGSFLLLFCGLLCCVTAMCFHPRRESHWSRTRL
UniProt Q8NBP0: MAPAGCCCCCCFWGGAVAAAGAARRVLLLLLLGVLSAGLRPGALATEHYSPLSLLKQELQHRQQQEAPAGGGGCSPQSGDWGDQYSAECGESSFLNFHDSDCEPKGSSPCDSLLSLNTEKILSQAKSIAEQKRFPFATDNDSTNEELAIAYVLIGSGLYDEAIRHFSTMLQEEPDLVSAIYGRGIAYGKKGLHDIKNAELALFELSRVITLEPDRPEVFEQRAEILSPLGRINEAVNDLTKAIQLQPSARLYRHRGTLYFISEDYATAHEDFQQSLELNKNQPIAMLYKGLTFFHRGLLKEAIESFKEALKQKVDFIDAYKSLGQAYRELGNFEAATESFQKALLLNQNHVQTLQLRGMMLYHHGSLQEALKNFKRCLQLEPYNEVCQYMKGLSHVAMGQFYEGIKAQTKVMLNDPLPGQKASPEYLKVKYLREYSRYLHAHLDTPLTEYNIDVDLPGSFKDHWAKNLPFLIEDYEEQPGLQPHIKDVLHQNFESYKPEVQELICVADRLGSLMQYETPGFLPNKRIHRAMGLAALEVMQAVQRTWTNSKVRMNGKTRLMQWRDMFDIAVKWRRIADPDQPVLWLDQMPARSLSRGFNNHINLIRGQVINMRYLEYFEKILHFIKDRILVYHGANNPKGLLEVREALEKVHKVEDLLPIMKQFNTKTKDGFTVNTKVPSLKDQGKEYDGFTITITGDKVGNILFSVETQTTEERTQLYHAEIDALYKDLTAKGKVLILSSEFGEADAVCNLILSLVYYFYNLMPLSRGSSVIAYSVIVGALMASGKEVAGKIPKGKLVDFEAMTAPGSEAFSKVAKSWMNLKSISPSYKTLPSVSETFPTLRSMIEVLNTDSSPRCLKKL
UniProt Q15642: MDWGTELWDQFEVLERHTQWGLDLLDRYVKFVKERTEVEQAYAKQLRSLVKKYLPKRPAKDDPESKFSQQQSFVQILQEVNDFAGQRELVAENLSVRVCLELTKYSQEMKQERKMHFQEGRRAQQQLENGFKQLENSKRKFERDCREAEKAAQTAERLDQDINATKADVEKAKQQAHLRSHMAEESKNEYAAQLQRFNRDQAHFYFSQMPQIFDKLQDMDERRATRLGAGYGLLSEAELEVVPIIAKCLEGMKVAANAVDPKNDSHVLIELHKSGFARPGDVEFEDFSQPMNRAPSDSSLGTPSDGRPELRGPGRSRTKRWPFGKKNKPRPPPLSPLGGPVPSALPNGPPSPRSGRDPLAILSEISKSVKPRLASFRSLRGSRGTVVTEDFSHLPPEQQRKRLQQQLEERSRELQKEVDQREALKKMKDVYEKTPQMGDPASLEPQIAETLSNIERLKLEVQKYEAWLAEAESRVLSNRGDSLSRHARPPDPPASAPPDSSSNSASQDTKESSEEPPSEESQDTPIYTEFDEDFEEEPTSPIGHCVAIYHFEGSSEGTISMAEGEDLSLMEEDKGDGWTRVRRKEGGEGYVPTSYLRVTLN
UniProt Q8IWR1: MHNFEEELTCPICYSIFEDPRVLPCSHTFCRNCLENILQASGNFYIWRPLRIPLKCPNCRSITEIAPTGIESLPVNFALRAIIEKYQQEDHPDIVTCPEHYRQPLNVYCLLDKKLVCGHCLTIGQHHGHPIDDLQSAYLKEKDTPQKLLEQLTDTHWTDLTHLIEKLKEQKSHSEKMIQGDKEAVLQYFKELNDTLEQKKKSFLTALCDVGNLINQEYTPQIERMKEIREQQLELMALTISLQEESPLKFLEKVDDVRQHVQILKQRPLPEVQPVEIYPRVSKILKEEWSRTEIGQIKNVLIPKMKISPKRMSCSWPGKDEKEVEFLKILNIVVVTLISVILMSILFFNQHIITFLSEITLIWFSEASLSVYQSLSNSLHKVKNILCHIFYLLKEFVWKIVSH
UniProt Q9P0S9: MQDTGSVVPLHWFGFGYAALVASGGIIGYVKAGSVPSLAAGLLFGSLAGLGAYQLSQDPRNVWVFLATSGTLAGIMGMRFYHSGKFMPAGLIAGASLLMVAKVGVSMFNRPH
UniProt Q9UPN9: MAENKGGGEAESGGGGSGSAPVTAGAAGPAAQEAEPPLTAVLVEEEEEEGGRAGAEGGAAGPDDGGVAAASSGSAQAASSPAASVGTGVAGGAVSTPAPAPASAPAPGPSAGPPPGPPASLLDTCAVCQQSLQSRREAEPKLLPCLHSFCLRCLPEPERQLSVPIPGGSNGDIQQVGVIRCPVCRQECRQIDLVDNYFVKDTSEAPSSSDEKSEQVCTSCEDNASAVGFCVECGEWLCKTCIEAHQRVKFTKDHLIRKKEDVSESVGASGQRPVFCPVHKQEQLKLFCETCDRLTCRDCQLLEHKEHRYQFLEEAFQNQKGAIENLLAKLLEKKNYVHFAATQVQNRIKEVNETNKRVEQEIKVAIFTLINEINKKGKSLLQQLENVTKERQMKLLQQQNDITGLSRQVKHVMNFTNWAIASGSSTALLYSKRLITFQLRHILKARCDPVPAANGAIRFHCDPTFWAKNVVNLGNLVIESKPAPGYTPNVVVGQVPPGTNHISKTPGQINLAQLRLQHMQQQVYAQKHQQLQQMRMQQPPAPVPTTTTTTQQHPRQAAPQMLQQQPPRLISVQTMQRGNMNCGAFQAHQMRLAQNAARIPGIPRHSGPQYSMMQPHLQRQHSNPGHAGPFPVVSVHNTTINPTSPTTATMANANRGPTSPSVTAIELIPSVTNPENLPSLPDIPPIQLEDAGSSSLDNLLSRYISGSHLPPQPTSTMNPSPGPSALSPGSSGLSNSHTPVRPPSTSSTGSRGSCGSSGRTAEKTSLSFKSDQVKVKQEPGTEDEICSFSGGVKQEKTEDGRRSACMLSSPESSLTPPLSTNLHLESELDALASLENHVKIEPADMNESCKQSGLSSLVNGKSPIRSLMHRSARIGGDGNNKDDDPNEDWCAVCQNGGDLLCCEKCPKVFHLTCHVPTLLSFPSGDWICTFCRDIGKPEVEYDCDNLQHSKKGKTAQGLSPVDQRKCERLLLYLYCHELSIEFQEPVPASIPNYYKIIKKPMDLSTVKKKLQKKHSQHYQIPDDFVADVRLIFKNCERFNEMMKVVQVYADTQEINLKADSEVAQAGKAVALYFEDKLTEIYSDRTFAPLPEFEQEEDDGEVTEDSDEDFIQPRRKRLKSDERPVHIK
UniProt Q5U3C3: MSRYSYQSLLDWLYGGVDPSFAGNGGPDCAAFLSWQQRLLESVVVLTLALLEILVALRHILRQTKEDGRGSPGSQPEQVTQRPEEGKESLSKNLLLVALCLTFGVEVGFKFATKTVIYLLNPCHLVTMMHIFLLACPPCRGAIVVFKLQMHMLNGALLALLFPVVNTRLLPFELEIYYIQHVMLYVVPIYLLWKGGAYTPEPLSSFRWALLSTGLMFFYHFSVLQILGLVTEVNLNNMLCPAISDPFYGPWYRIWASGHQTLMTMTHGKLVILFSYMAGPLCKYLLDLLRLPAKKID
UniProt Q96I45: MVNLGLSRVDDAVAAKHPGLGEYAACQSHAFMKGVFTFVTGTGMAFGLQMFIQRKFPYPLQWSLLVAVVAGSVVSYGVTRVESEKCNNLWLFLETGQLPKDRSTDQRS
UniProt Q5SNT2: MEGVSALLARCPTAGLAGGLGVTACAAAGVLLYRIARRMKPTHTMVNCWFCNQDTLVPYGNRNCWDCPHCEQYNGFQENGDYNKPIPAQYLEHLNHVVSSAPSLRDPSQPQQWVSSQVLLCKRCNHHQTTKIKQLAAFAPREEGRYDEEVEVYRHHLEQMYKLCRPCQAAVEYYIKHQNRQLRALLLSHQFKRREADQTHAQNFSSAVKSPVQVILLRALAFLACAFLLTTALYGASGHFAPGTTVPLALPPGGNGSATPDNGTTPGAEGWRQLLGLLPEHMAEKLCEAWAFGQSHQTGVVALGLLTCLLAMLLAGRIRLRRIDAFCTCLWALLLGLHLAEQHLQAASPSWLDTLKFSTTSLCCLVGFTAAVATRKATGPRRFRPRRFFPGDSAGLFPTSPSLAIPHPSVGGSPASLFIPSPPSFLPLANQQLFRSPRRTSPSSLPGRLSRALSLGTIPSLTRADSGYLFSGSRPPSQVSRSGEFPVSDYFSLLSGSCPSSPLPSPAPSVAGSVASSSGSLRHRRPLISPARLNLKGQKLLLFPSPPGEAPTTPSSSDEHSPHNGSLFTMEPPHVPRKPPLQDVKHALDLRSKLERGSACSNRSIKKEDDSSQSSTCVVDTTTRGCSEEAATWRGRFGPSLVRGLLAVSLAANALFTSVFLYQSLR

compound: COc1ccc(Cn2ccc3cc(C)c(C(=O)NO)cc32)cc1; assay: dose-dependent thermal stabilisation call (2D-TPP, DLPTP, 10% FDR) (binary (1 = stabilised)); higher = stabilised by the compound; settings: system: HL-60 intact cells; concentration range 0.04-10 µM
Procedure: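 2D thermal proteome profiling in intact HL-60 cells treated with BRD-3811 (0, 0.04, 0.29, 2, 10 uM) for 90 min at 37 C, then heated 3 min at one of 12 temperatures (42-63.9 C). Soluble protein was quantified by TMT10 MS. The value is the DLPTP call of the paper: dose-dependent thermal stabilisation over all temperatures at 10% FDR (F-test of a dose-response against a flat model); one experiment, one call per tested protein.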

Target | dose-dependent thermal stabilisation call
TSPAN33 (UniProt Q86UF1) | inactive: 0
TPD52 (UniProt P55327) | inactive: 0
TRDMT1 (UniProt O14717) | inactive: 0
TMEM30A (UniProt Q9NV96) | inactive: 0
TOR1B (UniProt O14657) | inactive: 0
TMEM131 (UniProt Q92545) | inactive: 0
TMEM9B (UniProt Q9NQ34) | inactive: 0
TMEM194A (UniProt O14524) | inactive: 0
TOPBP1 (UniProt Q92547) | inactive: 0
TIA1 (UniProt P31483) | inactive: 0
TSEN54 (UniProt Q7Z6J9) | inactive: 0
TRIM11 (UniProt Q96F44) | inactive: 0
TMEM184C (UniProt Q9NVA4) | inactive: 0
TRIOBP (UniProt Q9H2D6) | inactive: 0
TLR2 (UniProt O60603) | inactive: 0
TTC17 (UniProt Q96AE7) | inactive: 0
TMEM219 (UniProt Q86XT9) | inactive: 0
TRAF3 (UniProt Q13114) | inactive: 0
TTC13 (UniProt Q8NBP0) | inactive: 0
TP53BP2 (UniProt Q13625) | inactive: 0

Target | dose-dependent thermal stabilisation call
TRIP10 (UniProt Q15642) | inactive: 0
TSPAN31 (UniProt Q12999) | inactive: 0
TRIM59 (UniProt Q8IWR1) | inactive: 0
TRAPPC6A (UniProt O75865) | inactive: 0
TMEM14C (UniProt Q9P0S9) | inactive: 0
TSTA3 (UniProt Q13630) | inactive: 0
TRIM33 (UniProt Q9UPN9) | inactive: 0
TMEM164 (UniProt Q5U3C3) | inactive: 0
TLK2 (UniProt Q86UE8) | inactive: 0
TNFAIP8L2 (UniProt Q6P589) | inactive: 0
TMEM41B (UniProt Q5BJD5) | inactive: 0
TMEM141 (UniProt Q96I45) | inactive: 0
TRIM21 (UniProt P19474) | inactive: 0
TIFA (UniProt Q96CG3) | inactive: 0
TMEM161A (UniProt Q9NX61) | inactive: 0
TM9SF1 (UniProt O15321) | inactive: 0
TRMT2B (UniProt Q96GJ1) | inactive: 0
TIMM17A (UniProt Q99595) | inactive: 0
TMEM201 (UniProt Q5SNT2) | inactive: 0
TMEM192 (UniProt Q8IY95) | inactive: 0

Random excerpt: 3 entries already listed
Target | dose-dependent thermal stabilisation call
TLK2 (UniProt Q86UE8) | inactive: 0
TMEM14C (UniProt Q9P0S9) | inactive: 0
TRAPPC6A (UniProt O75865) | inactive: 0
